Test results as given in paper PMC10024865 (Journal of medicinal chemistry, 2022).

System: nucleolar volume in PC3M cells
Test: Nucleolar disassembly assay
Assay type: cell-based
Details: 24 hr, concentration-response

N=c1c2c(-c3ccccc3)c(-c3ccccc3)n(Cc3ccccc3)c2ncn1CCCO [Compound 5a, 3-(7-Benzyl-4-imino-5,6-diphenyl-4,7-dihydro-3H-pyrrolo[2,3-d]pyrimidin-3-yl)propan-1-ol]
effect on nucleolar volume: able to reduce nucleolar volume
